Reference: patent US20190365843A1, “Antimicrobial Activity of Bioactive Compounds and Their Derivatives” (priority 2018, published 2019)
For at least one compound, name, drawing or mass did not settle the structure. Some entries repeat one wording, which the source may state once for all of them.

System: ETEC
Test: Agar diffusion growth inhibition zone, ETEC
Assay type: cell-based, Enterotoxigenic E. coli

SMILES | inhibition of growth
COc1cc(CCc2cc(CCc3ccc(O)c(OC)c3)on2)ccc1O [compound 8, Tetrahydrocurcumin Isoxazole] | significantly inhibited the growth
COc1cc(CCC(=O)/C=C(\N)CCc2ccc(O)c(OC)c2)ccc1O [compound 9, Amino- tetrahydrocurcumin] | significantly inhibited the growth
COc1cc(/C=C/C(=O)CC(=O)/C=C/c2cc(Br)c(O)c(OC)c2)cc(Br)c1O [compound 10, Dibromocurcumin] | significantly inhibited the growth
